Assay [1] deals with Flag-tagged truncated JAK1, domain 4 (875-1154), kinase domain (UniProt P23458). Briefly: co-IP; 786-O cells transfected with Flag-JAK1 constructs; immunoprecipitation with anti-Flag antibody (against JAK1), immunoblot with anti-Flag or anti-EHBP1L1.
Assay [2] deals with Flag-tagged truncated JAK1, domains 1-3 (1-855) (UniProt P23458). The assay is described as above.
Assay [3] concerns the target JAK1 (Janus kinase 1), endogenous (human (endogenous in 786-O and A-498)) (UniProt P23458). Briefly: co-IP; endogenous EHBP1L1 and JAK1 in 786-O and A-498 cell lysates, with specific monoclonal antibodies; protein A/G magnetic beads, 4 °C overnight.

The chains behind the UniProt entries cited, without tags or fusion partners. Where a name states a change or a piece, a line headed by the entry shows the natural chain unless it says otherwise. A line that says so, or that is headed by a name, gives the form on record, which may keep a tag or linker. Residues count along the entry.
UniProt P23458: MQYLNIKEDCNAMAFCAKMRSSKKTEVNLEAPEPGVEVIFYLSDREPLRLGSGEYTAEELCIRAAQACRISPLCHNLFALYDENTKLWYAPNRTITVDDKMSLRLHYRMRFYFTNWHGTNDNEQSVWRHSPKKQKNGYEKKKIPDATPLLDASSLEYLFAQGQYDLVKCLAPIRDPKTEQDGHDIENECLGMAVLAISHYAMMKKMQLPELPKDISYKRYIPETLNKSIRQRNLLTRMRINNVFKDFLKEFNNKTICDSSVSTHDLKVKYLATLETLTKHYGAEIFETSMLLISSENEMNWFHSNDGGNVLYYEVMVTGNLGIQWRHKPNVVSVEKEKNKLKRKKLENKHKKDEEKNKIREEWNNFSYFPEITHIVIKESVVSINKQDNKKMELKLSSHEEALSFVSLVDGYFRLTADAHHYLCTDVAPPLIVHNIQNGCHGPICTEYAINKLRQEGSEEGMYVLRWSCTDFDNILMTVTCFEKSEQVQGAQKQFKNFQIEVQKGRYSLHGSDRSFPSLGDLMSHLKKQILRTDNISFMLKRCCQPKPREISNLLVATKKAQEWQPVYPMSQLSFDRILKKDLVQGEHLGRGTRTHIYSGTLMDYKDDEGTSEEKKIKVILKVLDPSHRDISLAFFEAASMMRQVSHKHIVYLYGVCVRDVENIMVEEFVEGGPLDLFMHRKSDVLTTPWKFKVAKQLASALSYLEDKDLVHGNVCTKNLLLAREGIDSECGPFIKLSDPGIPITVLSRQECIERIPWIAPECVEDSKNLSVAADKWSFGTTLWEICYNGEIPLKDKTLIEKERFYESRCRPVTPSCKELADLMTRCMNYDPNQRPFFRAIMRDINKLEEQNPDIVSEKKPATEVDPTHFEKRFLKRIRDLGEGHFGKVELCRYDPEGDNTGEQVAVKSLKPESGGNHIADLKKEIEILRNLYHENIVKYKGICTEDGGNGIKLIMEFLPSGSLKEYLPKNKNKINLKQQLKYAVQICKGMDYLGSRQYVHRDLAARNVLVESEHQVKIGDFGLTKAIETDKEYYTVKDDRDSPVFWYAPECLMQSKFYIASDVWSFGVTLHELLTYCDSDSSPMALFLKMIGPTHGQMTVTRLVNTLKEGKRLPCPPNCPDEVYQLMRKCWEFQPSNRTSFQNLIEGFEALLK
Flag-tagged truncated JAK1, domains 1-3 (1-855): residues 1-855 of P23458
Flag-tagged truncated JAK1, domain 4 (875-1154), kinase domain: residues 875-1154 of P23458
UniProt Q8N3D4: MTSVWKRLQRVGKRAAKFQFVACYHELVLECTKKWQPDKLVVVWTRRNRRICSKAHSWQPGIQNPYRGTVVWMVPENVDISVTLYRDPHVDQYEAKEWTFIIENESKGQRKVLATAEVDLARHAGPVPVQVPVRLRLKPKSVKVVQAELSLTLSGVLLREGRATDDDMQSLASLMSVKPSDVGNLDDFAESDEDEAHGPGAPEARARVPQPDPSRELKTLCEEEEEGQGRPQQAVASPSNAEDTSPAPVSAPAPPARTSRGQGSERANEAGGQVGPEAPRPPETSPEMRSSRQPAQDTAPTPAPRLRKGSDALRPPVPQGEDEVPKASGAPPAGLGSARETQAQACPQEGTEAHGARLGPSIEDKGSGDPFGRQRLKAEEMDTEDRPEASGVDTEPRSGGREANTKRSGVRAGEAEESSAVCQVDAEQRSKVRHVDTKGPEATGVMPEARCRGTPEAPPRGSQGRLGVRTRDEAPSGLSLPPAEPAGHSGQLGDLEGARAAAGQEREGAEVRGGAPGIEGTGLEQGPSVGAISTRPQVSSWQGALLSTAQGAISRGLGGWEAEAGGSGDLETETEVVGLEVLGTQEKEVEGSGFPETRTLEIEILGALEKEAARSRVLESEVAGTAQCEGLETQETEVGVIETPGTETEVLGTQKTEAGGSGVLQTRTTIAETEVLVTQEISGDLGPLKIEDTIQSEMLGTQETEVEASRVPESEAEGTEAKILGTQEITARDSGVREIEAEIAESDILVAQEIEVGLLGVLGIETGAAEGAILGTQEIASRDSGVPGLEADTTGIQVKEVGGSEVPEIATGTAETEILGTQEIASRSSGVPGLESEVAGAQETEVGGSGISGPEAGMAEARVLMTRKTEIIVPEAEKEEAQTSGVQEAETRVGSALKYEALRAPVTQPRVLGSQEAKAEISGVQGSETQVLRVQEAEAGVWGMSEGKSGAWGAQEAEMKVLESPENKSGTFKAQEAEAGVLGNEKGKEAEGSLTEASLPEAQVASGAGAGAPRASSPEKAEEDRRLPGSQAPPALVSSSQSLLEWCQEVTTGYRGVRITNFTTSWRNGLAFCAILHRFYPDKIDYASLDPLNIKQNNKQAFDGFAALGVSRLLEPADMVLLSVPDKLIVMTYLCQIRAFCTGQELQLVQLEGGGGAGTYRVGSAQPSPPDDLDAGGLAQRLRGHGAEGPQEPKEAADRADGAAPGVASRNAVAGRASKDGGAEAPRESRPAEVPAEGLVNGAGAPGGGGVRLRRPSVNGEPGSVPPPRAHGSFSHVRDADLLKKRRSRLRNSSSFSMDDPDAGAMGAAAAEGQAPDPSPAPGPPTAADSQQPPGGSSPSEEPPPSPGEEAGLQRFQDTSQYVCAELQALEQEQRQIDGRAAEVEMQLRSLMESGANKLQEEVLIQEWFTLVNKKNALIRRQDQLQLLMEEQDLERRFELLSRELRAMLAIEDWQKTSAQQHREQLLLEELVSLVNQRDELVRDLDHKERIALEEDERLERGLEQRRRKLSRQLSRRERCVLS

Results are given in words; binding and its absence hold for the method and conditions named. Binding seen in cells or lysates may run through a third protein. Some entries that bind do so weakly or less than the wild type.

Drawing on publication PMC10104659, this text covers binding for 1 substance.

For the substance “EHBP1L1 (EH domain-binding protein 1-like protein 1), endogenous (from UniProt Q8N3D4 1-1523)”, the binding entry is reported as “binds” in assay [1], “no binding” in assay [2] and “binds” in assay [3].
